Earlier results in publication PMC3873810, “Structure–Activity Relationship of Adenosine 5′-diphosphoribose at the Transient Receptor Potential Melastatin 2 (TRPM2) Channel: Rational Design of Antagonists” (Journal of Medicinal Chemistry, 2013).

Test system: TRPM2 channel
Settings: read-out: TRPM2 inhibition IC50; cited from earlier work

SMILES	IC50 [nM]
Clc1ccccc1C(c1ccccc1)(c1ccccc1)n1ccnc1 [clotrimazole]	< 3000
Clc1ccc(COC(Cn2ccnc2)c2ccc(Cl)cc2Cl)cc1 (centres unmarked) [econazole]	< 3000
